# Experimental data from PubChem BioAssay AID587 (National Center for Advancing Translational Sciences (NCATS), 2007).
# Among all 59,000 compounds or so, about 35 (0.06%) were called active. This list was built around the results that the source calls inconclusive (neither active nor inactive); the mix of calls is not that of the screen. No stated cut-off is given here; in the data, active means max dye-equivalent concentration above about 10 nM; inconclusive means between about 1.1 nM and that limit; inactive means weaker than that.
# Experiment: qHTS Assay for Spectroscopic Profiling in Texas Red Spectral Region
# Details: Compound fluorescence, Texas Red channel, 547/618 nm; hits give high values
# Outline: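 qHTS profiling of intrinsic compound fluorescence; 100 mM Tris pH 8.0; 15 min RT; ex 547 / em 618 nm; response expressed as Texas Red dye-equivalent concentration from six-point plate standard.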
row,Structure (SMILES),max dye-equivalent concentration
1,CCN(CC)CCNC(=O)Cn1cnc2sc(C)c(S(=O)(=O)N3CCOCC3)c2c1=O,inconclusive: 1.3 nM
2,Cc1cccc(-c2noc(-c3ccc(F)cc3)n2)c1,inconclusive: 1.1 nM
3,O=C(NCCN1CCCC1)C1COc2ccccc2O1 (centres undefined),inconclusive: 1.9 nM
4,Cc1nc2nc[nH]n2c(=O)c1NC(=O)CCc1ccccc1,inconclusive: 1.1 nM
5,CCC(=O)Nc1cccc(-c2cn3ccsc3n2)c1,inconclusive: 3.5 nM
6,CC(C)CCNC(=O)COc1ccc2c3c(c(=O)oc2c1)CCC3,inconclusive: 2.1 nM
7,O=C(O)C1C2C=CC(C2)C1C(=O)NC1CCN(Cc2ccccc2)CC1 (centres undefined),inconclusive: 1.1 nM
8,COc1ccc2cc(C(c3nnnn3C3CCCCC3)N3CCCCCC3)c3nnnn3c2c1 (centres undefined),inconclusive: 1.7 nM
9,COc1cc(NS(=O)(=O)N2CCCC2)cc(OC)c1OC,inconclusive: 1.1 nM
10,O=C(Nc1ccccc1)c1ccc(S(=O)(=O)NCC2CCCO2)cc1 (centres undefined),inconclusive: 1.1 nM
11,O=C(/C=C\c1ccc(O)c(O)c1)O[C@H]1C[C@@](O)(C(=O)O)C[C@H](O)[C@@H]1O,inactive
12,CCOc1ccc(C2C(=O)N(C3CCCCC3)CC(=O)N2CC2CCCO2)cc1OC (centres undefined),inconclusive: 1.7 nM
13,Cc1ccc(NC(=O)N2CCC(C(=O)NCC(C)C)CC2)cc1,inconclusive: 1.2 nM
14,O=C(CCNS(=O)(=O)c1ccc(Br)s1)N1CCN(c2ccccc2)CC1,inconclusive: 2.8 nM
15,CCOC(=O)N1CCC(NC(=O)c2cc3cc4cc(OC)ccc4nc3o2)CC1,inconclusive: 1.3 nM
16,COc1ccc(N=C2SC(C(=O)O)CC(=O)N2Cc2ccc(OC)c(OC)c2)cc1 (centres undefined),inconclusive: 3.1 nM
17,Cc1ccc2c(COC(=O)c3cnc(C)cn3)cc(=O)oc2c1,inconclusive: 1.1 nM
18,COc1cccc(CNc2ccc(S(N)(=O)=O)cc2)c1OC,inconclusive: 1.6 nM
19,O=C(NC1CCCCC1)C1CCN(c2nccs2)CC1,inconclusive: 1.1 nM
20,O=C(c1csnn1)N1CCC2(CC1)CCN(C(c1ccccc1)c1ccccc1)CC2,inactive
21,Cn1c(=S)c2[nH]c(SCCN3C(=O)c4ccccc4C3=O)nc2n(C)c1=O,inactive
22,Clc1ccc(-c2nn3c(-c4ccncc4)nnc3s2)c(Cl)c1,inconclusive: 1.4 nM

row,Structure (SMILES),max dye-equivalent concentration
1,CCC(c1nnnn1CCOC)N1CCN(Cc2ccccc2OC)CC1 (centres undefined),inconclusive: 1.4 nM
2,O=C(COC(=O)CCNS(=O)(=O)c1ccc2c(c1)OCCO2)NC1CCCc2ccccc21 (centres undefined),inconclusive: 1.9 nM
3,COc1cccc(-n2c(SCC(=O)OC(C)C)nnc2-c2cccnc2)c1,inconclusive: 1.9 nM
4,Cc1ccc(S(=O)(=O)N2CCC(C(=O)Nc3nnc(C4CCCC4)s3)CC2)cc1,inactive
5,COc1ccc(S(=O)(=O)N2CCSC2c2ccc(OC)c(OC)c2)cc1 (centres undefined),inconclusive: 2.8 nM
6,COc1ccc(CCn2c(C)cc(C(=O)CSc3nnc(N)s3)c2C)cc1,inconclusive: 1.1 nM
7,O=C(NCCN=C1NS(=O)(=O)c2ccccc21)c1ccc2nccnc2c1,inconclusive: 1.3 nM
8,O=c1c(-c2cccs2)nc2cnc(Nc3ccccc3)nc2n1C[C@H]1CCCO1,inactive
9,O=c1cc(-c2ccccc2)[nH]c2[nH]n(-c3ccccc3)c(=O)c12,inconclusive: 1.1 nM
10,CCOC(=O)c1sc2nc3c(cc2c1N)COC(C)(C)C3,inconclusive: 1.1 nM
11,COc1ccc(-c2cc(C(=O)N3CCc4ccccc4C3)no2)cc1OC,inconclusive: 1.4 nM
12,CCC(C)n1c(-c2cccs2)nc2nc3ccccc3nc21 (centres undefined),inactive
13,COC(=O)Nc1ccc2c(c1)N(C(=O)CCN1CCOCC1)c1ccccc1S2,inconclusive: 1.6 nM
14,Cc1cc(=O)n2nc(-c3ccccc3)sc2n1,inconclusive: 1.2 nM
15,O=C(C1CC2CCC1C2)N1CCN(Cc2ccc3c(c2)OCO3)CC1 (centres undefined),inconclusive: 1.2 nM
16,COc1ccc(OCc2cccc(C(=O)N3CCCC3)c2)cc1,inactive
17,CCCCNC(=O)CCCn1c(=O)c2ccccc2n(CC(=O)NCCC2=CCCCC2)c1=O,inconclusive: 2.6 nM
18,O=C(COc1ccc(Cl)cc1Cl)N(Cc1ccco1)C1CCS(=O)(=O)C1 (centres undefined),inconclusive: 1.5 nM
19,O=C(OCN1C(=O)c2ccccc2C1=O)c1ccccc1,inconclusive: 1.1 nM
20,FC(F)(F)c1cc(CO[C@@H]2CCCN[C@H]2c2ccccc2)cc(C(F)(F)F)c1,inconclusive: 1.2 nM
21,O=C(SCc1cccc2ccccc12)c1ccc(Cl)cc1,inactive
22,CCOc1ccc(OCCN2C(=O)NC3(CCCc4ccccc43)C2=O)cc1 (centres undefined),inconclusive: 1.1 nM

# A draw from above in order of heavy-atom count, high to low:
row,Structure (SMILES),max dye-equivalent concentration
20,FC(F)(F)c1cc(CO[C@@H]2CCCN[C@H]2c2ccccc2)cc(C(F)(F)F)c1,inconclusive: 1.2 nM
16,COc1ccc(OCc2cccc(C(=O)N3CCCC3)c2)cc1,inactive
19,O=C(OCN1C(=O)c2ccccc2C1=O)c1ccccc1,inconclusive: 1.1 nM
